Experimental data: the supplement of paper PMC10849652
This is one part of the list.

By UniProt entry, the sequences of proteins in these tests, tags left out. Where a name states a change or a piece, a line headed by the entry shows the natural chain unless it says otherwise.
UniProt O60763: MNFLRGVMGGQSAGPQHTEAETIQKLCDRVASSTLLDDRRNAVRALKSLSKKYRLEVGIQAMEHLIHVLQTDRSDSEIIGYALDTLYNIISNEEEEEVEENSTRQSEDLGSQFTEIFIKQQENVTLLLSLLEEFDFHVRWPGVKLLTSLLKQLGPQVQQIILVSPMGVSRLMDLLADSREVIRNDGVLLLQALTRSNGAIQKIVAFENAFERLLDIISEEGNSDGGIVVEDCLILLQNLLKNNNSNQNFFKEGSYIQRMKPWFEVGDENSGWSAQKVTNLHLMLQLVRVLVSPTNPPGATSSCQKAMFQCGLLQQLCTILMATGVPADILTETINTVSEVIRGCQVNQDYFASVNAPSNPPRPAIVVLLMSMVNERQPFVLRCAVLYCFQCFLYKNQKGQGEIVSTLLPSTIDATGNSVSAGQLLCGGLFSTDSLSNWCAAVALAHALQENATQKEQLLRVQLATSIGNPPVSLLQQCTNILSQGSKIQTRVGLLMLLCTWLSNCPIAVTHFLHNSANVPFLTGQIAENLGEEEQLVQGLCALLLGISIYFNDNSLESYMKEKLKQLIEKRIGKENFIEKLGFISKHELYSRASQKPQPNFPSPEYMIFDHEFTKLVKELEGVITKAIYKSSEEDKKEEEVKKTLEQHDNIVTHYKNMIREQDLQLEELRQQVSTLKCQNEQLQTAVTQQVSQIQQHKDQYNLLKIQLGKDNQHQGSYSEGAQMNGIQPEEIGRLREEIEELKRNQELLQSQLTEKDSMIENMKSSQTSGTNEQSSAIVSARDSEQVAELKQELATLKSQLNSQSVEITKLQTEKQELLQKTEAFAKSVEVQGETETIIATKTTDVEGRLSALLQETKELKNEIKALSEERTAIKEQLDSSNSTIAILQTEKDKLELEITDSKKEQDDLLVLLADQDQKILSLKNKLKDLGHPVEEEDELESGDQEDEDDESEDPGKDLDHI
UniProt Q9P2Y5: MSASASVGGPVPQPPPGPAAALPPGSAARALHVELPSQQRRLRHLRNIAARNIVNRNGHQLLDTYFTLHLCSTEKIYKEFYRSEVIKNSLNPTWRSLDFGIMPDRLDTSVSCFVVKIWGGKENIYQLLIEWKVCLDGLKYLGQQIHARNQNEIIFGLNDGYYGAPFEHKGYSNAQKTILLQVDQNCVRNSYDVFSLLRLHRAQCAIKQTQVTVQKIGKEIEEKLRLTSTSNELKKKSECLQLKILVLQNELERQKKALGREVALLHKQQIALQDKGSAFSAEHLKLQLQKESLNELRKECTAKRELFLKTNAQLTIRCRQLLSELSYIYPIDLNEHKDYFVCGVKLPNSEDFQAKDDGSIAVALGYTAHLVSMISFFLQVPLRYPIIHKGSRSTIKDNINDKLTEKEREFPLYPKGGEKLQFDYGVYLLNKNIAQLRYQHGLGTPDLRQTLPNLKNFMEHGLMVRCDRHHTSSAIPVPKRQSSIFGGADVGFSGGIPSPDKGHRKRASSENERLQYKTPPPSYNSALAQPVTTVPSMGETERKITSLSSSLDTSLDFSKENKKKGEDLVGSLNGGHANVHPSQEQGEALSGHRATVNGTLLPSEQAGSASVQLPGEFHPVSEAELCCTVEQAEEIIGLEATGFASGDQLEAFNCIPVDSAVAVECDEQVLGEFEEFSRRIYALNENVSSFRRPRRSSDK
UniProt Q9NWZ5: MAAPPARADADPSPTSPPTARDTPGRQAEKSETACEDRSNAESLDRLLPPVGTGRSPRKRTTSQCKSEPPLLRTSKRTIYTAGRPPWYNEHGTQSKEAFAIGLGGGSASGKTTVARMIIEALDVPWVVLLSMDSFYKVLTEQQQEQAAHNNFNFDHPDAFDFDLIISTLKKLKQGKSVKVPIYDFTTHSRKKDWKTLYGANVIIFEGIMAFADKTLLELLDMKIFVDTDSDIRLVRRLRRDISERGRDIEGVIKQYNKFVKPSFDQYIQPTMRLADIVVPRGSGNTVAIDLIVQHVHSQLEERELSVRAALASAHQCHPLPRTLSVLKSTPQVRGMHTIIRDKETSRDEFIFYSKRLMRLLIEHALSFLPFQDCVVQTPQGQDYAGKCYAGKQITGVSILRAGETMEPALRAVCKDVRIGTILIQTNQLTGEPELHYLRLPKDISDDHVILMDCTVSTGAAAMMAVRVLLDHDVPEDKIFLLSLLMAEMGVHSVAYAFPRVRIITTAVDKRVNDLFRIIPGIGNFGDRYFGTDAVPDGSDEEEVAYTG
UniProt P61960, whole entry, looked up: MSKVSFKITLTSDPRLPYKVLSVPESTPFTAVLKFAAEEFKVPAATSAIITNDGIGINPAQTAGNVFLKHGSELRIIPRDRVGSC
UniProt Q9BZL1: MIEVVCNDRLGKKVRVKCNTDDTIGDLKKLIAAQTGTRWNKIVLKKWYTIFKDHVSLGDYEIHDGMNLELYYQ
UniProt Q9NRR5, whole entry, looked up: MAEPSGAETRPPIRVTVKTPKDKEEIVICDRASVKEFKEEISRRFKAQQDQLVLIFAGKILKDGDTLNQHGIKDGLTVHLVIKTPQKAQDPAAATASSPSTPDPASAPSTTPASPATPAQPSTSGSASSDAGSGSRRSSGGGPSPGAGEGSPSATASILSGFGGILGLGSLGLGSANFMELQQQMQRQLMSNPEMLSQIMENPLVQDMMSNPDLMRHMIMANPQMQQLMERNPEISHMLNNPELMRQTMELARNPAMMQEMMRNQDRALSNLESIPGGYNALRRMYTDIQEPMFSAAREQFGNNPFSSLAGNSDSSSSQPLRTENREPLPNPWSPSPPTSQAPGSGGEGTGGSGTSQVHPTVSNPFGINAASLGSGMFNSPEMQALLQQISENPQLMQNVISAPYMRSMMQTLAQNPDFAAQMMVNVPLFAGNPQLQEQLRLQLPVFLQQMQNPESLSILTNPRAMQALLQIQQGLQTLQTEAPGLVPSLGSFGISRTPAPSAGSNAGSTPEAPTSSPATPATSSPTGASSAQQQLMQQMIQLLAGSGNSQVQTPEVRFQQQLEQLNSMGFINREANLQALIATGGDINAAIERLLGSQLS
UniProt Q96LJ8: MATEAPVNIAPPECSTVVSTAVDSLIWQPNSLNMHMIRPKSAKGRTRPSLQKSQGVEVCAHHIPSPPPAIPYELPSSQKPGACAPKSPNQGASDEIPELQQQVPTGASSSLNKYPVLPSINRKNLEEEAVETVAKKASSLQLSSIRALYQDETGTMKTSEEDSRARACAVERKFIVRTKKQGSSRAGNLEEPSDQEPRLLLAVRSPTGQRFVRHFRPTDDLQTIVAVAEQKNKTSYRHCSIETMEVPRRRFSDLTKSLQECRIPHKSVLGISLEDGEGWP
UniProt Q92890: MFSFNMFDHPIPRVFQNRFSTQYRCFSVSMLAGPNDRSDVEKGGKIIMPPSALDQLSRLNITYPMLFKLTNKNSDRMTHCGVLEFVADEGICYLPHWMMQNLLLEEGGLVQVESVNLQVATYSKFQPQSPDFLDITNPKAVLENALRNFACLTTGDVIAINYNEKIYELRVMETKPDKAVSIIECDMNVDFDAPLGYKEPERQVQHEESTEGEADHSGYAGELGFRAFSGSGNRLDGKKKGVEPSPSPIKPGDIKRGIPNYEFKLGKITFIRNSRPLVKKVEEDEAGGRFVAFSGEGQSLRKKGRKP
UniProt O94874: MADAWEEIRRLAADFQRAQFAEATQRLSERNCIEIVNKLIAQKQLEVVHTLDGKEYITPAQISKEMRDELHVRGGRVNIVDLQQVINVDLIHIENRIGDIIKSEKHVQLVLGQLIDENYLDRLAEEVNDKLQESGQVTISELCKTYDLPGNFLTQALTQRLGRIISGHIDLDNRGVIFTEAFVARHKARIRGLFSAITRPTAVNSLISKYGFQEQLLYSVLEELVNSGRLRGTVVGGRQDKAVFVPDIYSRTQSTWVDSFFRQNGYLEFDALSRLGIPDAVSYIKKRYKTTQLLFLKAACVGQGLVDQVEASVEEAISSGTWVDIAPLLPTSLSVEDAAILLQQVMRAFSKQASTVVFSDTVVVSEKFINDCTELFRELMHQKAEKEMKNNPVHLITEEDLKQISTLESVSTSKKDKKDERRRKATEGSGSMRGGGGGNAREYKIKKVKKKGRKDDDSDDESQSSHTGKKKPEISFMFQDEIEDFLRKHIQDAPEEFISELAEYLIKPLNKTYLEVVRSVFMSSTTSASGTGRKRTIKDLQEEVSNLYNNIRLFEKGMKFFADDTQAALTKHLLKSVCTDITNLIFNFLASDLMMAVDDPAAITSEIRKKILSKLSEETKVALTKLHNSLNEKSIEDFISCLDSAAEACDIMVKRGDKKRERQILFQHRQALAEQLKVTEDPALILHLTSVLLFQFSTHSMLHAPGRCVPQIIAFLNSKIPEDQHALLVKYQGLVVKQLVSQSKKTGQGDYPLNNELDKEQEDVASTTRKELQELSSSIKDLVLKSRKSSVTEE
UniProt Q16739: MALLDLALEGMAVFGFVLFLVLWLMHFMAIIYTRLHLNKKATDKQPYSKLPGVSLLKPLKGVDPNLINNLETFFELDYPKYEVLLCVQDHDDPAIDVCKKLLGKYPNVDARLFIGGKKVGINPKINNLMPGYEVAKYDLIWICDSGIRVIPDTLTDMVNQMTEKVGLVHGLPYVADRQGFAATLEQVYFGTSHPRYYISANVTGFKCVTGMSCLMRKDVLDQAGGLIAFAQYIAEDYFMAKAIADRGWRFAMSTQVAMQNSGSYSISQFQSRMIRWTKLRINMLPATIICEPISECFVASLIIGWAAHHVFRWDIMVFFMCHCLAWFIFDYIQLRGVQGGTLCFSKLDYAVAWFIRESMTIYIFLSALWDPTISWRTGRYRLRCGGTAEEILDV
UniProt Q9BV40: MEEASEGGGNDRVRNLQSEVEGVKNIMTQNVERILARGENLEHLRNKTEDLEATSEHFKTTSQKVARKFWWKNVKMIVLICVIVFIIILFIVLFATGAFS
UniProt P18206: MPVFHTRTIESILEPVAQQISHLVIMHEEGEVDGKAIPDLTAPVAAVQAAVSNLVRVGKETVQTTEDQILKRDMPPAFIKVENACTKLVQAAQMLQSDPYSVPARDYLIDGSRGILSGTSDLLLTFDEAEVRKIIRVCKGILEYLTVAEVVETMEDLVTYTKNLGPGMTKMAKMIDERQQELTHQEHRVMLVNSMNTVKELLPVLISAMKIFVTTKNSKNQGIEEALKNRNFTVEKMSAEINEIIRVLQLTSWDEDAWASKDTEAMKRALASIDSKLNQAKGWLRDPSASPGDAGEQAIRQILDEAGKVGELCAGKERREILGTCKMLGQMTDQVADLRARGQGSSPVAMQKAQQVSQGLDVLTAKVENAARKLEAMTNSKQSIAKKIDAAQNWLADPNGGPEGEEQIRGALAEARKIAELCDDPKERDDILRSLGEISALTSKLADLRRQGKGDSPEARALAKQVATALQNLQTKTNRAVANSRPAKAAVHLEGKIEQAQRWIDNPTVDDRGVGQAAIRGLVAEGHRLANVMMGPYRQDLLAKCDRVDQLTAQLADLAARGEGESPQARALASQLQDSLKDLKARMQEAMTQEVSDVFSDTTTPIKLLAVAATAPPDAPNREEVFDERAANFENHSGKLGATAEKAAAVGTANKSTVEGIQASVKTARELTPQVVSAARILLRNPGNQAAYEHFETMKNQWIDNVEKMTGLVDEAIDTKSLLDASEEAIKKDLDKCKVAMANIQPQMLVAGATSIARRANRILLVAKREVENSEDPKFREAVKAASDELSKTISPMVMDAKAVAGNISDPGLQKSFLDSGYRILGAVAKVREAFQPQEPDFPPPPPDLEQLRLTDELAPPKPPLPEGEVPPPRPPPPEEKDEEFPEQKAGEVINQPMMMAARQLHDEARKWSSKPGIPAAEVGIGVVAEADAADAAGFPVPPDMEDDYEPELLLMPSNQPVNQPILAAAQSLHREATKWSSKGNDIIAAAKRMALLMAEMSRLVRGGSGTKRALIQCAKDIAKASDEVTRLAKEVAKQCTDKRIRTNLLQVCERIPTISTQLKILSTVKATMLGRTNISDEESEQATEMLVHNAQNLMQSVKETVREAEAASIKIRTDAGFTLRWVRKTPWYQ
UniProt Q70CQ3: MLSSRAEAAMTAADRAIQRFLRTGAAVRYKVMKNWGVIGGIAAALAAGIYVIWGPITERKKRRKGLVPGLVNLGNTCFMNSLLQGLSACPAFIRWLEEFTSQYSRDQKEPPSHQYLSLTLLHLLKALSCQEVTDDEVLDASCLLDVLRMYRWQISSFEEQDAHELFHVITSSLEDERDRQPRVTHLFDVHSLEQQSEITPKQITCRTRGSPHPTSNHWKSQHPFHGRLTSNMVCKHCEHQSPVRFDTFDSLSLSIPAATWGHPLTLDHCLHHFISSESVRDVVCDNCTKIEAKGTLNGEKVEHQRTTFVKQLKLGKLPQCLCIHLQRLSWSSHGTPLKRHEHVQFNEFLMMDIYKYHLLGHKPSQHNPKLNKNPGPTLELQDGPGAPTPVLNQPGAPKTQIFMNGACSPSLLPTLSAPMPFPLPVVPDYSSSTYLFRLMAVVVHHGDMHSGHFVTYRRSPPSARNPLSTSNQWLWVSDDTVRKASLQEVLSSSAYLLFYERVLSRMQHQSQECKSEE
UniProt Q9UDW1: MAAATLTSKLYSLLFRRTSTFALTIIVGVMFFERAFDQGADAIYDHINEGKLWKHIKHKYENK

Experiments:
Test in all cases: log2 fold change, soluble protein after heating vs DMSO (PISA); higher = thermal stabilisation; K562 cells, 10 uM, 30 min; active = over 0.2 and 3.5 SD of the protein, either way, in both replicates (recomputed)
[1] = compound: C1=CC=C(C=C1)[C@H](COC2=CC3=C(C=C2)NC(=O)N3)NC(=O)C4=CC=CN(C4=O)CC5=CC(=C(C=C5)F)F
How it was run: (§1)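 Values are thermal stability changes relative to control samples and are taken from duplicates. They are stated as log2 fold changes. Before quantification by TMTpro 16plex LC-MS/MS with equalised channel sums, K562 cells at 2×10^6 cells/mL were treated with 10 μM compound for 30 min, heated in aliquots for 3 min across 48°C-58°C, pooled, extracted in PBS with 0.5% NP-40 at 4°C, and centrifuged at 21,000xg for 90 min to give the soluble supernatant.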

[2] = compound: CC1=C(SC2=C1C(=N[C@H](C3=NN=C(N32)C)CC(=O)N)C4=CC=C(C=C4)Cl)C
How it was run: as §1

[3] = compound: CC1=C2C(=CC=C1)N=C(N(C2=O)C3=CC=CC=C3C)CN4C=NC5=C(N=CN=C54)N
How it was run: as §1

[4] = compound: Cc1sc2c(c1C)C(c1ccc(Cl)cc1)=N[C@@H](CC(=O)OC(C)(C)C)c1nnc(C)n1-2
How it was run: as §1

[5] = compound: c1ccc([C@@H]2C[C@H]2NC2CCNCC2)cc1
How it was run: as §1

Measured: log2 fold change

UGP2 (UniProt Q16851)
inactive: [1] 0.003 | [2] 0.05 | [3] 0.047 | [4] -0.029 | [5] -0.005

USO1 isoform 2 (UniProt O60763)
inactive: [1] -0.007 | [2] 0.012 | [3] 0.028 | [4] 0.012 | [5] 0.048

UVRAG (UniProt Q9P2Y5)
inactive: [1] 0.012 | [2] 0.012 | [3] 0.165 | [4] -0.035 | [5] -0.034

UQCC2 (UniProt Q9BRT2)
inactive: [1] 0.024 | [2] -0.006 | [3] -0.025 | [4] -0.157 | [5] 0.083

UBE4A isoform 2 (UniProt Q14139)
inactive: [1] -0.051 | [2] -0.067 | [3] 0.013 | [4] 0.013 | [5] 0.081

USP5 (UniProt P45974)
inactive: [1] -0.006 | [2] 0.033 | [3] 0.076 | [4] 0 | [5] -0.047

UCKL1 (UniProt Q9NWZ5)
inactive: [1] -0.067 | [2] 0.034 | [3] 0.041 | [4] -0.004 | [5] -0.108

UFM1 isoform 2 (UniProt P61960)
inactive: [1] -0.032 | [2] -0.009 | [3] 0.066 | [4] -0.069 | [5] -0.048

USP24 (UniProt Q9UPU5)
inactive: [1] 0.114 | [2] 0.02 | [3] 0.105 | [4] -0.198 | [5] -0.033

UBL5 (UniProt Q9BZL1)
inactive: [1] -0.051 | [2] -0.102 | [3] 0.051 | [4] -0.016 | [5] 0.03

UTP15 (UniProt Q8TED0)
inactive: [1] 0.095 | [2] -0.236 | [3] -0.268 | [4] 0.118 | [5] 0

USP7 (UniProt Q93009)
inactive: [1] -0.165 | [2] 0.026 | [3] 0.09 | [4] -0.01 | [5] -0.062

UNC119B (UniProt A6NIH7)
inactive: [1] -0.093 | [2] -0.013 | [3] 0.094 | [4] -0.016 | [5] -0.009

UMPS (UniProt P11172)
inactive: [1] 0 | [2] 0.003 | [3] 0.029 | [4] -0.015 | [5] 0.01

UQCRC1 (UniProt P31930)
inactive: [1] 0.009 | [2] 0.003 | [3] 0.028 | [4] -0.029 | [5] 0.029

UQCRFS1 (UniProt P47985)
inactive: [1] 0.021 | [2] 0.006 | [3] -0.047 | [4] -0.009 | [5] -0.047

UBQLN4 (UniProt Q9NRR5)
inactive: [1] 0.001 | [2] -0.03 | [3] -0.011 | [4] -0.013 | [5] 0.008

VAPB (UniProt O95292)
inactive: [1] 0.004 | [2] 0.008 | [3] 0.024 | [4] -0.015 | [5] -0.025

UNC13D isoform 3 (UniProt Q70J99)
inactive: [1] 0.081 | [2] -0.077 | [3] 0.025 | [4] 0.086 | [5] -0.099

UBXN10 (UniProt Q96LJ8)
inactive: [1] 0.011 | [2] 0.014 | [3] 0.024 | [4] 0.018 | [5] 0.063

UEVLD (UniProt Q8IX04)
inactive: [1] 0.107 | [2] 0.071 | [3] 0.229 | [4] 0.066 | [5] 0.081

UGP2 (UniProt C9JWG0)
inactive: [1] -0.014

UBQLN2 (UniProt Q9UHD9)
inactive: [1] 0.02 | [2] 0.045 | [3] 0.023 | [4] -0.091 | [5] 0.003

UFM1 (UniProt P61960)
inactive: [1] -0.019 | [2] 0.363 | [3] 0.049 | [4] -0.164 | [5] 0.083

USP48 (UniProt Q86UV5)
inactive: [1] 0

VAT1 (UniProt Q99536)
inactive: [1] -0.021 | [2] 0.01 | [3] -0.022 | [4] -0.004 | [5] 0.017

UQCRC2 (UniProt P22695)
inactive: [1] 0.047 | [2] 0.032 | [3] 0.01 | [4] -0.02 | [5] -0.01

USP1 (UniProt O94782)
inactive: [1] -0.037 | [2] -0.118 | [3] 0.251 | [4] -0.1 | [5] -0.008

UPF2 (UniProt Q9HAU5)
inactive: [1] 0.034 | [2] -0.082 | [3] -0.144 | [4] 0.215 | [5] -0.038

UFD1 isoform 1 (UniProt Q92890)
inactive: [1] -0.011 | [2] 0.038 | [3] 0.033 | [4] -0.045 | [5] 0.019

USP47 (UniProt Q96K76)
inactive: [1] -0.021 | [2] -0.04 | [3] 0.1 | [4] 0.046 | [5] -0.016

UBR7 (UniProt Q8N806)
inactive: [1] -0.02 | [2] 0.043 | [3] 0.038 | [4] 0.01 | [5] 0.002

VARS2, A0A0G2JL52
inactive: [1] -0.006 | [2] 0.006 | [3] 0.044 | [4] -0.004 | [5] -0.015

USP25 isoform 3 (UniProt Q9UHP3)
inactive: [1] -0.02 | [2] 0.024 | [3] 0.068 | [4] -0.007 | [5] -0.007

USP22 (UniProt Q9UPT9)
inactive: [1] -0.105 | [2] 0.183 | [3] 0.166 | [4] -0.019 | [5] -0.055

4 successive entries out of the list so far, for reference:
UQCRC2 (UniProt P22695)
inactive: [1] 0.047 | [2] 0.032 | [3] 0.01 | [4] -0.02 | [5] -0.01

USP1 (UniProt O94782)
inactive: [1] -0.037 | [2] -0.118 | [3] 0.251 | [4] -0.1 | [5] -0.008

UPF2 (UniProt Q9HAU5)
inactive: [1] 0.034 | [2] -0.082 | [3] -0.144 | [4] 0.215 | [5] -0.038

UFD1 isoform 1 (UniProt Q92890)
inactive: [1] -0.011 | [2] 0.038 | [3] 0.033 | [4] -0.045 | [5] 0.019

The list continues:

USP48 isoform 8 (UniProt Q86UV5)
inactive: [1] -0.073 | [2] 0.106 | [3] 0.191 | [4] -0.012 | [5] 0.119

UTP18 (UniProt Q9Y5J1)
inactive: [1] 0.011

ULK3 isoform 4 (UniProt Q6PHR2)
inactive: [1] -0.283

UBE4B isoform 4 (UniProt O95155)
inactive: [1] -0.019 | [2] 0.03 | [3] 0.019 | [4] 0.006 | [5] -0.003

UFL1 (UniProt O94874)
inactive: [1] -0.072 | [2] 0.012 | [3] 0.039 | [4] 0.001 | [5] -0.066

UBXN4 (UniProt Q92575)
inactive: [1] -0.06 | [2] 0.052 | [3] 0.038 | [4] -0.032 | [5] 0.019

UXS1 isoform 2 (UniProt Q8NBZ7)
inactive: [1] -0.009 | [2] -0.058 | [3] -0.026 | [4] -0.046 | [5] -0.006

URI1 isoform 4 (UniProt O94763)
inactive: [1] 0.195 | [2] -0.279 | [3] -0.074 | [4] 0.004 | [5] 0.112

UGGT2 (UniProt Q9NYU1)
inactive: [1] 0.064 | [2] 0.054 | [3] 0.085 | [4] -0.036 | [5] 0.035

VAC14 (UniProt Q08AM6)
inactive: [1] -0.011 | [2] 0.029 | [3] 0.013 | [4] -0.019 | [5] -0.035

UGCG (UniProt Q16739)
inactive: [1] 0.01 | [2] 0.039 | [3] 0.081 | [4] 0.161 | [5] -0.1

USP3 (UniProt Q9Y6I4)
inactive: [1] 0 | [2] 0.143 | [3] 0.036 | [4] -0.061 | [5] -0.025

VAMP8 (UniProt Q9BV40)
inactive: [1] 0.032 | [2] 0.035 | [3] -0.041 | [4] 0.008 | [5] 0.006

VCL (UniProt P18206)
inactive: [1] -0.017 | [2] 0.003 | [3] -0.04 | [4] -0.004 | [5] 0.015

USP30 (UniProt Q70CQ3)
inactive: [1] -0.222 | [2] 0.016 | [3] -0.089 | [4] -0.16 | [5] 0.108

UQCR10 (UniProt Q9UDW1)
inactive: [1] -0.032 | [2] 0.036 | [3] 0.142 | [4] -0.131 | [5] -0.009

UIMC1 (UniProt Q96RL1)
inactive: [1] 0.073 | [2] -0.085 | [3] -0.028 | [4] 0.045 | [5] 0.022

UGDH (UniProt O60701)
inactive: [1] 0.025 | [2] 0.052 | [3] 0.103 | [4] -0.04 | [5] -0.038

VAMP2 (UniProt P63027)
inactive: [1] 0.048 | [2] 0.093 | [3] -0.017 | [4] -0.016 | [5] 0.066

VANGL1 (UniProt Q8TAA9)
inactive: [1] -0.012 | [2] 0.036 | [3] 0.049 | [4] 0.017 | [5] 0.136
